Reference: publication PMC3907062

The chains behind the UniProt entries cited, without tags or fusion partners.
UniProt P48995: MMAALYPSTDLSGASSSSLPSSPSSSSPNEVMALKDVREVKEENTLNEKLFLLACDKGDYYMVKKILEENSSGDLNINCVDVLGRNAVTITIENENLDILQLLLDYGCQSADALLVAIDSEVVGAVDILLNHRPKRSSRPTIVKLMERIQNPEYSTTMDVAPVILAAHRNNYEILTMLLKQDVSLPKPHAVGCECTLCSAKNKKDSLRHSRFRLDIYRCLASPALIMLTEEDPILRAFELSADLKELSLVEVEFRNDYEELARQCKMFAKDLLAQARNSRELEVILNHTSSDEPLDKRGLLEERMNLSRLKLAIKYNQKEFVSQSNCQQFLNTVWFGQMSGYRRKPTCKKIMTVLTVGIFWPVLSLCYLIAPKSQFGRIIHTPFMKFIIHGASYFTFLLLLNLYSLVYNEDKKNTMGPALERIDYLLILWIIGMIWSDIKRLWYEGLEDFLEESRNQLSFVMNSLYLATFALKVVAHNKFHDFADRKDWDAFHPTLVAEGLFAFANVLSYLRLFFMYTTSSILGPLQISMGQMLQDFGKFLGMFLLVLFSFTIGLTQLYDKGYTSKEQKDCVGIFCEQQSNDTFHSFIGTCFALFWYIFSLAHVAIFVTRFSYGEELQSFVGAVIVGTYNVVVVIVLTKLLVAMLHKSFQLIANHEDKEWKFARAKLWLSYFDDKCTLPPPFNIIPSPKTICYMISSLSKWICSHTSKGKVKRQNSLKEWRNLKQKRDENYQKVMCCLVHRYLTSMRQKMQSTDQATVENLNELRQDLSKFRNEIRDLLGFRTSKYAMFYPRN

Target: myc-hTRPC1-WT (human transient receptor potential channel 1) (human) (UniProt P48995)
Test: co-IP; lysates of Xenopus brain explants including spinal cords (embryos stage 26-28) expressing the tagged proteins; lysis buffer 1% Triton X-100, 150 mM NaCl, 10 mM Tris-Cl pH 7.4, 1 mM EDTA, 1 mM EGTA, 0.5% NP-40; antibody 3-4 h at 4°C, protein A/G agarose overnight at 4°C; anti-c-Myc and anti-GFP used for immunoprecipitation and immunoblotting

YFP-XSTIM1-WT (wild-type Xenopus stromal interaction molecule 1) (from UniProt A0JMU6)
binding: binds

Results are given in words; binding and its absence hold for the method and conditions named. Binding seen in cells or lysates may run through a third protein. A result given as binding can be weak or reduced; the word gives no strength.
